# Some of the results follow. The main result of the screen is listed elsewhere. These columns were measured beside it and carry no call. Compounds called inactive in the main read-out are mostly missing here. The note in brackets gives the kind of curve behind each potency; many fits are weak.
# Experiment: qHTS Assay to Find Inhibitors of Chronic Active B-Cell Receptor Signaling
# Conditions: ABC-DLBCL IkBa-CBG/CBR reporter, luminescence ratio (green luciferase fused to IkBa over red control in TMD8 lymphoma cells), 4 h
# In short: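 Concentration-response series (up to 46 uM) were applied to TMD8 dual-reporter cells for 4 h at 37C with doxycycline. Green/red ratio, after filter-overlap correction, defined %Activity; red signal alone was normalised to basal cells and zero luminescence.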
# [1] = measured here: CBR red luminescence, cell number
SMILES,AC50 [1],AC50 (measured here: IkBa-CBG green luminescence)
CN(C)CCn1c(C(=O)Nc2ccccc2)cc2ccccc21,"3.98 µM [falling, partial curve, poor fit]",–
CCOC(=O)c1ccc(NC(=S)N2CCN(Cc3ccccc3)CC2)cc1,"16.4 µM [rising, partial curve, poor fit]",–
CCN1CCCC1CNC(=O)c1[nH]c2ccc(OC)cc2c1C (stereo not given),"25.1 µM [falling, single point]",–
O=C(COC(=O)c1ccc([N+](=O)[O-])s1)c1ccc[nH]1,"18.4 µM [rising, partial curve, poor fit]",–
CC(=O)NC(=S)Nc1ccc(NC(=S)NC(=O)c2ccc([N+](=O)[O-])cc2)cc1,"1 µM [rising, partial curve]",–
CCOc1cccc(C(=O)NC2CCCCC2)c1,"9.2 µM [falling, full curve, poor fit]",–
CN1CCN(c2ccccc2NC(=O)c2ccc(-c3ccccc3)cc2)CC1,"23.1 µM [falling, single point]",–
O=C(Nc1cc(Br)ccc1O)c1cc(-c2ccccc2)on1,"35.5 µM [falling, single point]",–
Cc1onc(-c2ccccc2Cl)c1C(=O)NC(=S)Nc1ccc(C(C)C)cc1,"0.355 µM [rising, full curve, poor fit]",–
CCN(CC)S(=O)(=O)c1ccc(OC)c(NC(=O)c2ccc(-n3cncn3)c([N+](=O)[O-])c2)c1,"0.164 µM [rising, full curve, poor fit]",–
COc1ccc(C(=O)Nc2c(C)cc(C)cc2C)cc1OC,"35.5 µM [rising, single point]",–
Cc1cc(C)n(CCCN2CCC(C(=O)Nc3cccc(-c4cccc(F)c4)c3)CC2)n1,"35.5 µM [falling, single point]",–
O=C(NC1CCN(Cc2ccccc2)CC1)c1cccc(S(=O)(=O)Nc2ccc(F)cc2)c1,"23.1 µM [falling, partial curve]",–
O=C(/C=C/c1ccccc1)Nc1ccc2c(c1)OCCO2,"8.91 µM [falling, partial curve, poor fit]",–
O=C(Nc1cccc(Cl)c1)Nc1ccc(Br)cc1F,"16.4 µM [rising, partial curve, poor fit]",–
Cc1ccc(NC(=S)NC(=O)C2CC2)c(C)c1,"6.31 µM [rising, partial curve, poor fit]",–
Cn1cnc(Sc2ncnc3nc[nH]c23)c1[N+](=O)[O-],"10 µM [rising, partial curve, poor fit]",–
CC1CCC(C(C)C)C(OC(=O)CSc2nc(N)cc(=O)[nH]2)C1 (stereo not given),"1 µM [rising, full curve, poor fit]",–
O=S(=O)(C/C(=C/CO)S(=O)(=O)c1ccccc1)c1ccccc1,"1 µM [falling, full curve]",–
COC(=O)C1CCN(C(=O)COC(=O)CC(NC(C)=O)c2ccccc2)CC1 (stereo not given),"32.6 µM [falling, single point]",–
COc1cccc(NC(=O)Nc2nnc(-c3ccccc3SCc3ccccc3)s2)c1,"6.51 µM [rising, single point]",–
Cc1ccc(SCC(=O)OCC(=O)N(C)CC(=O)Nc2ccc(F)cc2)cc1,"1.84 µM [falling, partial curve, poor fit]",–

SMILES,AC50 [1],AC50 (measured here: IkBa-CBG green luminescence)
c1cc2[nH]snc2c2nc(C3CC3)nc12,"35.5 µM [falling, single point]",–
O=C1NC(=S)CN1c1ccccc1,"11.2 µM [falling, partial curve]",–
C=CCSC1=C(C#N)C(c2ccccc2Cl)C(C(=O)c2cccs2)C(O)(C(F)(F)F)N1 (stereo not given),"20.6 µM [falling, single point]",–
CC1Cn2c(nc(=O)c3c2NCN(CCc2ccccc2)C3)S1 (stereo not given),"25.1 µM [rising, partial curve, poor fit]",–
CCCOC(=O)c1ccc(NC(=O)C2C3CCC(C3)C2C(=O)O)cc1 (stereo not given),"0.731 µM [rising, partial curve, poor fit]",–
CN(C)S(=O)(=O)N1CCC(Oc2cccc(C(=O)NC3CCCCCC3)c2)CC1,"11.2 µM [falling, partial curve]",–
CCOC(=O)N1CCN(C(=O)c2ccc(CN(c3ccc(C)c(C)c3)S(C)(=O)=O)cc2)CC1,"22.4 µM [falling, single point]",–
O=C(COC(=O)CCc1nc2ccccc2s1)NCc1ccco1,"3.98 µM [rising, single point]",–
CCOCCn1c(C(C)O)nc2ccccc21 (stereo not given),"0.251 µM [rising, full curve, poor fit]",–
Cc1ccc(/C=N/NC(=O)c2ccc(NC(=O)c3ccccc3Cl)cc2)o1,"35.5 µM [falling, partial curve, poor fit]",–
CC(Sc1nnc2c(n1)C1CCC2(C)C1(C)C)C(=O)Nc1ccccc1 (stereo not given),"3.66 µM [rising, partial curve, poor fit]",–
CC(=O)Nc1ccc(Oc2sc(C(=O)c3ccccc3)c(N)c2C#N)cc1,"8.91 µM [falling, partial curve]",–
COc1ccc(/C=C(/C#N)C(=O)Nc2ccc(O)cc2)cc1C(=O)O,"11.2 µM [falling, single point]",–
O=C(COC(=O)c1ccc(F)cc1)NCC1COc2ccccc2O1 (stereo not given),"20.6 µM [falling, single point]",–
CCOC(=O)c1c(C)[nH]c(C(=O)C(C)OC(=O)c2cccc(OCc3c(C)noc3C)c2)c1C (stereo not given),"3.55 µM [falling, full curve]",–
Cc1ccc2[nH]c(C(=O)Nc3ccc(F)cc3)cc2c1,"15.8 µM [falling, partial curve]",–
CCCCOc1ccc(NC(=O)Nc2nnc(C)s2)cc1,"14.1 µM [rising, partial curve]",–
O=C(CCCc1ccccc1)NCc1ccccc1Cl,"7.94 µM [falling, partial curve]",–
FC(F)(F)c1nnc2ccc(NCn3nnc4ccccc43)nn12,"14.6 µM [falling, partial curve]",–
O=C(c1cc2cc(F)ccc2[nH]1)N1CCC(Cc2ccccc2)CC1,"35.5 µM [rising, single point]",–
Fc1cccc(Cl)c1/C=C/c1cnc2ccccc2n1,"8.91 µM [rising, partial curve, poor fit]",–
O=C(Nc1ccccc1O)c1ccccc1O,"11.2 µM [falling, single point]",–

SMILES,AC50 [1],AC50 (measured here: IkBa-CBG green luminescence)
Cc1c(C(=O)NC(C)c2ccccn2)oc2c(Cl)cccc12 (stereo not given),"29.1 µM [rising, single point]",–
Cc1occc1C(=O)N/N=C/C=C/c1ccc(N(C)C)cc1,"35.5 µM [falling, partial curve, poor fit]",–
O=C(NC1CCCCC1)NC1CC2CCC(C1)N2C(=O)NCc1ccccc1 (stereo not given),"18.4 µM [rising, single point]",–
COc1ccccc1N1CCN(C(=O)CCNC(=O)Cn2ccc3ccccc3c2=O)CC1,"2.24 µM [rising, partial curve, poor fit]",–
Cc1c(C(=O)NCc2ccccc2)c(-c2ccccc2)nn1-c1ccccc1,"23.1 µM [falling, single point]",–
COc1cccc(/C=N/NC(=O)C(=O)N2CCCC2)c1O,"25.1 µM [falling, single point]",–
Cc1cc[n+](-c2[nH]c(=O)sc2/C=N/NC(=O)c2ccccc2[O-])cc1C,"18.4 µM [falling, single point]",–
C/C(CC(=O)N1CCCC1)=N\NC(=O)c1cc2ccccc2cc1O,"10 µM [falling, partial curve]",–
COc1cccc(C(=O)Nc2ccc(NC(C)=O)cc2)c1,"5.8 µM [falling, partial curve, poor fit]",–
O=C(Nc1cc(C(F)(F)F)ccc1N1CCCC1)C1CCCO1 (stereo not given),"18.4 µM [rising, partial curve, poor fit]",–
Oc1ccc(-c2nc3ccccn3c2NCc2ccc3c(c2)OCO3)cc1,"2.82 µM [falling, full curve, poor fit]",–
O=C(OCc1cc(=O)oc2cc(O)ccc12)c1cc(S(=O)(=O)N2CCOCC2)ccc1F,"29.1 µM [falling, single point]",–
Cc1ccc(OC(C)C(=O)Nc2cc(C)on2)cc1 (stereo not given),"35.5 µM [rising, single point]",–
COc1ccc(N(CC(=O)N2CCCCCC2)S(=O)(=O)c2c(C)[nH]c(=O)[nH]c2=O)cc1,"20.6 µM [falling, single point]",–
O=C(c1cccs1)N(Cc1cccnc1)c1nc2c(Cl)cccc2s1,"25.1 µM [falling, partial curve, poor fit]",–
COc1ccccc1/C=C/C(=O)OCC(=O)NC1CCCCCC1,"4.61 µM [falling, full curve]",–
NC(=O)C1CCN(C(=O)COc2ccc(Nc3ccccc3)cc2)CC1,"12.6 µM [rising, single point]",–
CN(C)C(=O)[C@@H]1C[C@H]1[C@@H](NC(=O)OCc1ccccc1)c1ccccc1,–,"18.4 µM [falling, partial curve, poor fit]"
CCOc1ccccc1N(C(=O)c1ccco1)C(C(=O)NC1CCCC1)c1cccnc1 (stereo not given),"2.31 µM [rising, partial curve, poor fit]",–
CC1C=CCC2C(=O)N(c3cccc(C(=O)Nc4ccc(Br)cc4)c3)C(=O)C12 (stereo not given),"17.8 µM [falling, partial curve]",–
Cc1ccc(NNC2CC(=O)N(c3cccc(Cl)c3)C2=O)cc1 (stereo not given),"25.1 µM [falling, single point]",–

# Shown with tabs: entries from further up
SMILES	AC50 [1]	AC50 (measured here: IkBa-CBG green luminescence)
Cc1cc(C)n(CCCN2CCC(C(=O)Nc3cccc(-c4cccc(F)c4)c3)CC2)n1	35.5 µM [falling, single point]	–
c1cc2[nH]snc2c2nc(C3CC3)nc12	35.5 µM [falling, single point]	–
CC1Cn2c(nc(=O)c3c2NCN(CCc2ccccc2)C3)S1 (stereo not given)	25.1 µM [rising, partial curve, poor fit]	–
CCCOC(=O)c1ccc(NC(=O)C2C3CCC(C3)C2C(=O)O)cc1 (stereo not given)	0.731 µM [rising, partial curve, poor fit]	–
COc1cccc(/C=N/NC(=O)C(=O)N2CCCC2)c1O	25.1 µM [falling, single point]	–

# — PubChem BioAssay AID493014 (National Center for Advancing Translational Sciences (NCATS), 2011)
